Results are given in words; binding and its absence hold for the method and conditions named. In cells and extracts the contact can be indirect. Some results given as binding are weak or reduced against the parent protein; the word gives no strength. Each block holds one binder with its values, some of them ahead of it.
What was measured:
Assay in all cases: co-IP
[1] = biological target: mutant CycT1(210-580) (UniProt O60563)
[2] = biological target: mutant CycT1(260-580) (UniProt O60563)
[3] = biological target: mutant CycT1(430-726) (UniProt O60563)

Sequences of proteins named here, by UniProt entry; tags and fusion partners are left off. A change or cut given only in a name is not applied to a line headed by its entry. Residues count along the entry.
UniProt O60563, 210-580, stated change not applied: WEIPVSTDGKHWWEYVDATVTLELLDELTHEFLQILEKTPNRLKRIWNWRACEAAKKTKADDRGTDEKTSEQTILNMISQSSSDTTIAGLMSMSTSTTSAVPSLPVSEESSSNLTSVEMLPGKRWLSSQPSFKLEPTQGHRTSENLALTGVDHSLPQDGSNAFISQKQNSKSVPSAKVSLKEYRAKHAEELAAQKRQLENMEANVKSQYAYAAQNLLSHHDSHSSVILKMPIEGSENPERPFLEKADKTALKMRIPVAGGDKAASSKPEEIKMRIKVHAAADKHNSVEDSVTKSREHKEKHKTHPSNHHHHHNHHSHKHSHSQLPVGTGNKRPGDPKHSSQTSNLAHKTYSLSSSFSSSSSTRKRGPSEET
UniProt O60563, 260-580, stated change not applied: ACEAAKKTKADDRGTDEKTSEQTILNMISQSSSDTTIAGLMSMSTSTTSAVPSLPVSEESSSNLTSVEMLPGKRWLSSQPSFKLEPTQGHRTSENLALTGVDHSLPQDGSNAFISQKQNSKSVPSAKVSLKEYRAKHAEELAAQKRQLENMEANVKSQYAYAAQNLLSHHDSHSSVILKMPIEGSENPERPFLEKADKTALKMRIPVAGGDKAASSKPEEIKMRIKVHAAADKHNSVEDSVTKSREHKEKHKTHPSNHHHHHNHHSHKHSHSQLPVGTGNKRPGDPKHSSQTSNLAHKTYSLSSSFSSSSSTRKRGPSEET
UniProt O60563, 430-726, stated change not applied: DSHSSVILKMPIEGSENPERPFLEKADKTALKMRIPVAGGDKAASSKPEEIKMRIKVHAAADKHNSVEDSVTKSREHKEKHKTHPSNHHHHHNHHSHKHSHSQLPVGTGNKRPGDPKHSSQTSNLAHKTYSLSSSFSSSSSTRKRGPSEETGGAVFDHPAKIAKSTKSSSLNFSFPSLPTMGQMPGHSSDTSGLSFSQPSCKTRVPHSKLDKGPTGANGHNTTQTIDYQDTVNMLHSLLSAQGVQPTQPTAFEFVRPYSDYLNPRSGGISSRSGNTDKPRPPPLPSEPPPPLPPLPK

binding [1]: binds
binding [2]: no binding
binding [3]: no binding
B1: WT Siah2 (enzyme, UniProt O43255 1-324)
chain: MSRPSSTGPSANKPCSKQPPPQPQHTPSPAAPPAAATISAAGPGSSAVPAAAAVISGPGGGGGAGPVSPQHHELTSLFECPVCFDYVLPPILQCQAGHLVCNQCRQKLSCCPTCRGALTPSIRNLAMEKVASAVLFPCKYATTGCSLTLHHTEKPEHEDICEYRPYSCPCPGASCKWQGSLEAVMSHLMHAHKSITTLQGEDIVFLATDINLPGAVDWVMMQSCFGHHFMLVLEKQEKYEGHQQFFAIVLLIGTRKQAENFAYRLELNGNRRRLTWEATPRSIHDGVAAAIMNSDCLVFDTAIAHLFADNGNLGINVTISTCCP

binding [1]: binds
binding [2]: no binding
binding [3]: no binding
B2: DN Siah1C75S (enzyme, UniProt Q8IUQ4 1-282)
chain: MSRQTATALPTGTSKCPPSQRVPALTGTTASNNDLASLFECPVCFDYVLPPILQCQSGHLVCSNCRPKLTCCPTSRGPLGSIRNLAMEKVANSVLFPCKYASSGCEITLPHTEKADHEELCEFRPYSCPCPGASCKWQGSLDAVMPHLMHQHKSITTLQGEDIVFLATDINLPGAVDWVMMQSCFGFHFMLVLEKQEKYDGHQQFFAIVQLIGTRKQAENFAYRLELNGHRRRLTWEATPRSIHEGIATAIMNSDCLVFDTSIAQLFAENGNLGINVTISMC

Source: doi:10.1101/2021.12.30.474394
